Measured values as given in PMC11641041.
No constants are given. Whether binding was seen depends on the method and setting. In cells and extracts the contact can be indirect. Some binding calls cover weakened binding; strength is not graded here.

Amino acid sequences for entries named in this document (tags omitted).
UniProt Q01147: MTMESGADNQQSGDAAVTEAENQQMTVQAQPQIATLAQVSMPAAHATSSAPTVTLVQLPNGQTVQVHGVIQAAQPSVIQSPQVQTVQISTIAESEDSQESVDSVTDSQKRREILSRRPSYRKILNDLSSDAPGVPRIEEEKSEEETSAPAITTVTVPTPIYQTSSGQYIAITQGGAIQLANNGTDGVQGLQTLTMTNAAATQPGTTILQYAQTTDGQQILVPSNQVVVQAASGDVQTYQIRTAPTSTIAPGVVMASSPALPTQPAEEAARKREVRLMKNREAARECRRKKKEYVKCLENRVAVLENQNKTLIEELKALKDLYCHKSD
UniProt P15337: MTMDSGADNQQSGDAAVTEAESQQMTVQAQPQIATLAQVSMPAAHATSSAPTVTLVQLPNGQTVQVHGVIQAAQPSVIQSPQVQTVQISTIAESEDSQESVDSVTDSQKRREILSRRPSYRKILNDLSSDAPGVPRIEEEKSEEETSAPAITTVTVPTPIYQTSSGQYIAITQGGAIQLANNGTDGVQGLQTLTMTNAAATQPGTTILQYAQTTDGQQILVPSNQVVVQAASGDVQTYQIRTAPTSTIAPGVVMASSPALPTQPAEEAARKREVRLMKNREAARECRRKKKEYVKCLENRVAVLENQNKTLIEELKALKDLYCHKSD
UniProt P45481: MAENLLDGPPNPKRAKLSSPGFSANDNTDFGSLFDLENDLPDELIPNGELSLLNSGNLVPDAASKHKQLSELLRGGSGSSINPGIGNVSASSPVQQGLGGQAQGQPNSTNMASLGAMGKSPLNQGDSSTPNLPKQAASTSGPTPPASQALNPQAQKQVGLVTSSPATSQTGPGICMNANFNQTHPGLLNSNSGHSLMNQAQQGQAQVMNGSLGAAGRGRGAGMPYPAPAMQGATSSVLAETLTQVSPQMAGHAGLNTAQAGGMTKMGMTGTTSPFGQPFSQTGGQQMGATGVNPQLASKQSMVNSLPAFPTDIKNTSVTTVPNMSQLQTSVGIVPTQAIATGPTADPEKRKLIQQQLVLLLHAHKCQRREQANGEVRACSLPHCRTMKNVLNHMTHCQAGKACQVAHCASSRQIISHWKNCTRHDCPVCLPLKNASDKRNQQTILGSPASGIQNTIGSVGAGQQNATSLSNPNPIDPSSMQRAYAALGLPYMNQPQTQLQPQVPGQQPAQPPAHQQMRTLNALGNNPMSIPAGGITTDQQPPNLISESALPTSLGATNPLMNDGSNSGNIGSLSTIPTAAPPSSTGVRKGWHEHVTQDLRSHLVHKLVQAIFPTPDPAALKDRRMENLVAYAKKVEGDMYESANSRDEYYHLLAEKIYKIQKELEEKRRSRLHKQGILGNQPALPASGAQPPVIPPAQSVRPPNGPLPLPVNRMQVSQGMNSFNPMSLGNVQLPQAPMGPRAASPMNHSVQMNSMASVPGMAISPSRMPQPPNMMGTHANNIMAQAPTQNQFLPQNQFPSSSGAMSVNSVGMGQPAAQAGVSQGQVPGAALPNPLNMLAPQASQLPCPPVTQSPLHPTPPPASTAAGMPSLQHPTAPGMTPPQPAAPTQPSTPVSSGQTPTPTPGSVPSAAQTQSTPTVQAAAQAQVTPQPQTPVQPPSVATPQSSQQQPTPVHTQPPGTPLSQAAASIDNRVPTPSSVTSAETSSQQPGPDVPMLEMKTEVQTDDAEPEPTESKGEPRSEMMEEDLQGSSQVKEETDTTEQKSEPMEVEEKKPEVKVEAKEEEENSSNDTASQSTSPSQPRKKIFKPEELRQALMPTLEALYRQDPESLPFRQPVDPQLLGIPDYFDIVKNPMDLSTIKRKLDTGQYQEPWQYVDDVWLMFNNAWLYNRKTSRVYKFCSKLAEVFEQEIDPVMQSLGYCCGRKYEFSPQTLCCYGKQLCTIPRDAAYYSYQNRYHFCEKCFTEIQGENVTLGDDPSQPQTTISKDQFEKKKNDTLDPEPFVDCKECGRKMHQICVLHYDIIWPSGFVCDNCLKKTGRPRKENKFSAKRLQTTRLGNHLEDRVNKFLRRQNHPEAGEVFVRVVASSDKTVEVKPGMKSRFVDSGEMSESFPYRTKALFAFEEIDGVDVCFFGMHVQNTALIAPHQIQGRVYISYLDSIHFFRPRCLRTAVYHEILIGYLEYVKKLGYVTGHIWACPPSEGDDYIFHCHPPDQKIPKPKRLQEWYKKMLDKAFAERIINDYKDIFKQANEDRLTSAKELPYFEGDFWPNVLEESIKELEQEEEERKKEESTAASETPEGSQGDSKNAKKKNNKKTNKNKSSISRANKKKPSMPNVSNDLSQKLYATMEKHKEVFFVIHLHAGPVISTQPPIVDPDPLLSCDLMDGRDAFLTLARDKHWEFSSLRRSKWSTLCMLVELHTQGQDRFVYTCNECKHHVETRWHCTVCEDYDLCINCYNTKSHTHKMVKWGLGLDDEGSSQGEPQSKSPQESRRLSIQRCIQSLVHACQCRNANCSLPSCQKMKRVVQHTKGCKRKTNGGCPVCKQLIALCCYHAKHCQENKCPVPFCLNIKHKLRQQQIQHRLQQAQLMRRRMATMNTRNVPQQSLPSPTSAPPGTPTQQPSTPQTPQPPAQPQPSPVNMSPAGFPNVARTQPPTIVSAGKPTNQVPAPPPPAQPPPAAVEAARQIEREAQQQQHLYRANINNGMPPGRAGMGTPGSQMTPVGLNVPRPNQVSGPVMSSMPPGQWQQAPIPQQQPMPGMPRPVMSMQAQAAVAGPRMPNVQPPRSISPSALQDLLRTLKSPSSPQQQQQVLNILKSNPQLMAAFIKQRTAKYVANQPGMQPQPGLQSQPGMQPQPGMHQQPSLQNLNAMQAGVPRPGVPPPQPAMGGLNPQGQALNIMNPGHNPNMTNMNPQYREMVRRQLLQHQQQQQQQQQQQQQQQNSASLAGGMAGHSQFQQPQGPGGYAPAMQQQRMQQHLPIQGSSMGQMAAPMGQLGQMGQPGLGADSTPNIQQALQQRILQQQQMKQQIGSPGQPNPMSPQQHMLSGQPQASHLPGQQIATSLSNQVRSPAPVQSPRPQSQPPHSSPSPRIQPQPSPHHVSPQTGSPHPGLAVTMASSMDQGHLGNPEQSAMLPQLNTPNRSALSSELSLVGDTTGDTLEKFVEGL
UniProt Q6JHU9: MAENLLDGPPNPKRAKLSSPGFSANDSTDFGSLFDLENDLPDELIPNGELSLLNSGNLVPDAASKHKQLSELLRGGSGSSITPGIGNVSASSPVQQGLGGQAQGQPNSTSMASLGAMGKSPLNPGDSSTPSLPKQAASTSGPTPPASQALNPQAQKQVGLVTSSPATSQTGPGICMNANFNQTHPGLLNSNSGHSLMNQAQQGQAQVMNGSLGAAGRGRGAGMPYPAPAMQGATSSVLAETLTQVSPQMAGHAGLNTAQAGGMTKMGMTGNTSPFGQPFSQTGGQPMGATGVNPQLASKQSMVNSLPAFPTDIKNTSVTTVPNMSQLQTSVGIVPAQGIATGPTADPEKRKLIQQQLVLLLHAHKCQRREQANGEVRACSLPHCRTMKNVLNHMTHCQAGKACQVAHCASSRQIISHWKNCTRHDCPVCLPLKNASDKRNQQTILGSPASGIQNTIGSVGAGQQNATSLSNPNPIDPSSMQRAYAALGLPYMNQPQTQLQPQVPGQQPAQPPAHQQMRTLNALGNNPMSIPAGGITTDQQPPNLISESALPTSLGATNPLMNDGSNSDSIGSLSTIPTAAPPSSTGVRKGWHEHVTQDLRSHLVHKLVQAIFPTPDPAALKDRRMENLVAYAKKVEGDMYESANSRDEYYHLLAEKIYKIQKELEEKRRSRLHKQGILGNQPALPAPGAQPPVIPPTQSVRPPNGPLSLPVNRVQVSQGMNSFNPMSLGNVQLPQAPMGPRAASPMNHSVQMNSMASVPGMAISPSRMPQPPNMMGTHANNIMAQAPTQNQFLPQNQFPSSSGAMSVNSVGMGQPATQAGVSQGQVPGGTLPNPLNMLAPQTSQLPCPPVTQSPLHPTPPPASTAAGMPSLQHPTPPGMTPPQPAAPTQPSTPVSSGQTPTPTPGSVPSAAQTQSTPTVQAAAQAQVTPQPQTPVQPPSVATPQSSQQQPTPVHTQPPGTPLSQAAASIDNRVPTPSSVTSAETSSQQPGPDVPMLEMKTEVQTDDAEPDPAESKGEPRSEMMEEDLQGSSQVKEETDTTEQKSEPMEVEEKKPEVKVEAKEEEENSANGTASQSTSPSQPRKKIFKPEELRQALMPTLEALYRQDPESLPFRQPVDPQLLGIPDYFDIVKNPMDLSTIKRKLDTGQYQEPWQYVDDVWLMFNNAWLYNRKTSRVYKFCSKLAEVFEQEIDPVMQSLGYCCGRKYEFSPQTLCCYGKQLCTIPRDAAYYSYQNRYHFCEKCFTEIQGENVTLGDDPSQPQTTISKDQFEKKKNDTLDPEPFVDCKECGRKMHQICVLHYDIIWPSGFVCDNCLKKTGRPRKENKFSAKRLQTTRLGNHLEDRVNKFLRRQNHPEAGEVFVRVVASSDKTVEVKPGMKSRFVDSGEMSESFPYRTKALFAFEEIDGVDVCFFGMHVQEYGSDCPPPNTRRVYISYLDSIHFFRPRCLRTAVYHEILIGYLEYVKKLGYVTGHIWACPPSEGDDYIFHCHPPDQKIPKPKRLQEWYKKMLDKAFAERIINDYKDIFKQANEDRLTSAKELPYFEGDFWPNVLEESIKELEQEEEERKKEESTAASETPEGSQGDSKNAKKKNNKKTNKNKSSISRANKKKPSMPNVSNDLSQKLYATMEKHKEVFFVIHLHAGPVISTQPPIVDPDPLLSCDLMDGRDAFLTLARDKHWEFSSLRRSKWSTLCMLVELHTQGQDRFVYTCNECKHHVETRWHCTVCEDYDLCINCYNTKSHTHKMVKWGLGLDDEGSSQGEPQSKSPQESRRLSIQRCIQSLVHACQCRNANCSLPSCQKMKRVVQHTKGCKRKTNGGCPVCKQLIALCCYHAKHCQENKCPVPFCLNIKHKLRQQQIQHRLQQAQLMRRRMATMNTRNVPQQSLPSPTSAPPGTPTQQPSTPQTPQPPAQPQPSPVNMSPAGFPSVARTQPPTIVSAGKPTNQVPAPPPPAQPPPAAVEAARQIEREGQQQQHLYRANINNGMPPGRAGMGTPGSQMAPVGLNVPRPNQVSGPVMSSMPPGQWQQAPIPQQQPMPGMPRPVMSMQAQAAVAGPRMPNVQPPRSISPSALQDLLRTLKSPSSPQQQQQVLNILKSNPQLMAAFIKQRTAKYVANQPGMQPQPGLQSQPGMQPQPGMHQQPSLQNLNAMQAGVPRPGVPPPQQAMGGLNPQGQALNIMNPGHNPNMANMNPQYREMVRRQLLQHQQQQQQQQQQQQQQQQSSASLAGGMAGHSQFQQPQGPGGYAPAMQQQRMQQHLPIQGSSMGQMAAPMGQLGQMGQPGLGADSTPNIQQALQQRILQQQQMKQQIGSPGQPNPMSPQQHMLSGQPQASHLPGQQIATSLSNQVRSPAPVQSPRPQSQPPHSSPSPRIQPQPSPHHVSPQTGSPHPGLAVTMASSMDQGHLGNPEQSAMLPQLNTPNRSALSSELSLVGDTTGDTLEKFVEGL

Legend:
[1] = target: phosphorylated cAMP response element-binding protein (AtT-20 cells) (mouse (endogenous in AtT-20)) (UniProt Q01147); assay: co-IP; anti-p-CREB antibody on Protein A/G magnetic beads, 4 °C for 16 h, lysates of MMQ and AtT-20 cells (IP lysis buffer with phosphatase inhibitors); cells treated with BRC (10 μM) or CAB (25 μM) for 48 h; Western blot for CBP and p300
[2] = target: phosphorylated cAMP response element-binding protein (MMQ cells) (rat (endogenous in MMQ)) (UniProt P15337); assay: as above

| Substance | binding [1] | binding [2] |
| --- | --- | --- |
| CREB-binding protein (AtT-20 cells) (from UniProt P45481 1-2441) | binds |  |
| CREB-binding protein (MMQ cells) (from UniProt Q6JHU9 1-2442) |  | binds |
